The source of these data is patent US12161728.

Protein sequences, listed by entry. Tags and fused reporters are not part of them. Residues count along the entry.
UniProt Q13148: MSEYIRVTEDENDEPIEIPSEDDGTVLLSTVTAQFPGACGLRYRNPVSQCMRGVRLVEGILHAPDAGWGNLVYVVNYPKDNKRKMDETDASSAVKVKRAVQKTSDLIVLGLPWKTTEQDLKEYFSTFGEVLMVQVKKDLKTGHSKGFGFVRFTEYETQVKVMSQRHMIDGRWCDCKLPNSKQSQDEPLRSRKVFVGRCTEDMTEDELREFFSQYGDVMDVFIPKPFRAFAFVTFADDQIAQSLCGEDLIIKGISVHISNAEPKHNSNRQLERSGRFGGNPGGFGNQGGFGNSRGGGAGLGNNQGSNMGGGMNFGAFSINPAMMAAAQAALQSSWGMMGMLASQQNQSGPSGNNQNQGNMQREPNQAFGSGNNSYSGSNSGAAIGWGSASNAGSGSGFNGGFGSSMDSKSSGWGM
UniProt Q13616: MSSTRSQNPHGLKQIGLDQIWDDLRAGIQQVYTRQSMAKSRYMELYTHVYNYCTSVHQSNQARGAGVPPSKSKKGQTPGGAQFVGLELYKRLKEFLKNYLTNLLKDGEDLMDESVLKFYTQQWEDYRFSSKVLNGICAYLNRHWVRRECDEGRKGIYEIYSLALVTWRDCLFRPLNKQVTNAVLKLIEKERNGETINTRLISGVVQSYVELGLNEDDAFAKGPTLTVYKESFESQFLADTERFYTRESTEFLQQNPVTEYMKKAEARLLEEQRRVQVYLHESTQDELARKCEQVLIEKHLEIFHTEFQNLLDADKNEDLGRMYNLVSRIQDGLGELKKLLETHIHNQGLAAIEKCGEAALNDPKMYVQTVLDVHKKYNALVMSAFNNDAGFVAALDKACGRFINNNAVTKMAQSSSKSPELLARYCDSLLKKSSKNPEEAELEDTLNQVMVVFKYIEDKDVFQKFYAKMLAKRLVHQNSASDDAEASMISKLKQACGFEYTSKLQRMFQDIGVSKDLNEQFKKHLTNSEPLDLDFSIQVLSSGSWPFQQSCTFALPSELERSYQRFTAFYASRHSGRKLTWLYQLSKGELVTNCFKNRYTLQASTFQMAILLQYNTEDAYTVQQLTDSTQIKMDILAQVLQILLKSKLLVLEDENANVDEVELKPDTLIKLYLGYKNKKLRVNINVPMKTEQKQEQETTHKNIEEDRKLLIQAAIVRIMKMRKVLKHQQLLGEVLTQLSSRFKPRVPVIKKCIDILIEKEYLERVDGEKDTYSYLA
UniProt P63208, residues 2-163: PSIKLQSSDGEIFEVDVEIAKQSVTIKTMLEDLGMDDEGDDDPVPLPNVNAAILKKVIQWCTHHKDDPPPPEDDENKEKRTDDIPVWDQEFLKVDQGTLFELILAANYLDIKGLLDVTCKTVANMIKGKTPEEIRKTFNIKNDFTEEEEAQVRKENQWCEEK
UniProt Q921F2: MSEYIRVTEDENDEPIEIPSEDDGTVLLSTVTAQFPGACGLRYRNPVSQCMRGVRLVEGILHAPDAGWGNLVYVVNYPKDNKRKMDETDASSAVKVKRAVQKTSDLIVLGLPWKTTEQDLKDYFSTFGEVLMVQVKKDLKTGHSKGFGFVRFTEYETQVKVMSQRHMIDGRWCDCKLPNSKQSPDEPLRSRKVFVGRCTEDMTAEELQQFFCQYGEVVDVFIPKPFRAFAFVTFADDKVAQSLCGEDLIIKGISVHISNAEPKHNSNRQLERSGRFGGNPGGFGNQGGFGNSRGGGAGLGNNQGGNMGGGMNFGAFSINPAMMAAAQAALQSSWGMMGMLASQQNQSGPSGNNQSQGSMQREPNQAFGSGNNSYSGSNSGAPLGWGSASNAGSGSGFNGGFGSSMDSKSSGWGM

The target in test [1] is endogenous TDP-43 (TAR DNA-binding protein of 43 kDa) in HEK293 / Flp-In T-Rex 293 cells (UniProt Q13148). Kind of test: BioID/MS and IP/MS in HEK293 cells, validated by immunoblot.
Another test has as its target Cul1 (UniProt Q13616). Kind of test: proteins common to BioID/MS and IP/MS, HEK293 cells.
For the next test, the target named is Skp1 (UniProt P63208). The description is as above.
Test [2] deals with endogenous TDP-43 (TAR DNA-binding protein of 43 kDa) in HEK293 / Flp-In T-Rex 293 cells (UniProt Q13148). Kind of test: BioID proximity biotinylation, streptavidin capture, immunoblot. A general note: Immunoblotting shows a protein as a band on a membrane.
Test [3] deals with endogenous TDP-43 in Neuro2A cells (UniProt Q921F2). Kind of test: co-immunoprecipitation, western blot.
The target is the same in test [4]. As to the kind of experiment: co-immunoprecipitation in Neuro2a cells.
The target of test [5] is TDP-43-HA (UniProt Q13148). As to the kind of experiment: co-immunoprecipitation, western blot.
In test [6] the target is TDP-43-HA (UniProt Q13148). Kind of test: anti-FLAG M2 co-immunoprecipitation from co-transfected HEK293 cells.

Results are given in words; binding and its absence hold for the method and conditions named. For some assays here: In cells and extracts the contact can be indirect. Some results given as binding are weak or reduced against the parent protein; the word gives no strength. For some assays here: Tags and fused reporters may be left off the sequences shown.

B1: FLAG-BirA*-Cyclin F (protein, UniProt P41002 1-786, looked up, not shown: small tags and cut ends)
chain: MGSGGVVHCRCAKCFCYPTKRRIRRRPRNLTILSLPEDVLFHILKWLSVEDILAVRAVHSQLKDLVDNHASVWACASFQELWPSPGNLKLFERAAEKGNFEAAVKLGIAYLYNEGLSVSDEARAEVNGLKASRFFSLAERLNVGAAPFIWLFIRPPWSVSGSCCKAVVHESLRAECQLQRTHKASILHCLGRVLSLFEDEEKQQQAHDLFEEAAHQGCLTSSYLLWESDRRTDVSDPGRCLHSFRKLRDYAAKGCWEAQLSLAKACANANQLGLEVRASSEIVCQLFQASQAVSKQQVFSVQKGLNDTMRYILIDWLVEVATMKDFTSLCLHLTVECVDRYLRRRLVPRYRLQLLGIACMVICTRFISKEILTIREAVWLTDNTYKYEDLVRMMGEIVSALEGKIRVPTVVDYKEVLLTLVPVELRTQHLCSFLCELSLLHTSLSAYAPARLAAAALLLARLTHGQTQPWTTQLWDLTGFSYEDLIPCVLSLHKKCFHDDAPKDYRQVSLTAVKQRFEDKRYGEISQEEVLSYSQLCAALGVTQDSPDPPTFLSTGEIHAFLSSPSGRRTKRKRENSLQEDRGSFVTTPTAELSSQEETLLGSFLDWSLDCCSGYEGDQESEGEKEGDVTAPSGILDVTVVYLNPEQHCCQESSDEEACPEDKGPQDPQALALDTQIPATPGPKPLVRTSREPGKDVTTSGYSSVSTASPTSSVDGGLGALPQPTSVLSLDSDSHTQPCHHQARKSCLQCRPPSPPESSVPQQQVKRINLCIHSEEEDMNLGLVRL
B1: the binding result (in test [1]; with Cul1; with Skp1; in test [2]) was “binds” throughout.

B2: mCherry-Cyclin F^WT (protein, UniProt P41002 1-786, looked up, not shown: large carriers)
chain: MGSGGVVHCRCAKCFCYPTKRRIRRRPRNLTILSLPEDVLFHILKWLSVEDILAVRAVHSQLKDLVDNHASVWACASFQELWPSPGNLKLFERAAEKGNFEAAVKLGIAYLYNEGLSVSDEARAEVNGLKASRFFSLAERLNVGAAPFIWLFIRPPWSVSGSCCKAVVHESLRAECQLQRTHKASILHCLGRVLSLFEDEEKQQQAHDLFEEAAHQGCLTSSYLLWESDRRTDVSDPGRCLHSFRKLRDYAAKGCWEAQLSLAKACANANQLGLEVRASSEIVCQLFQASQAVSKQQVFSVQKGLNDTMRYILIDWLVEVATMKDFTSLCLHLTVECVDRYLRRRLVPRYRLQLLGIACMVICTRFISKEILTIREAVWLTDNTYKYEDLVRMMGEIVSALEGKIRVPTVVDYKEVLLTLVPVELRTQHLCSFLCELSLLHTSLSAYAPARLAAAALLLARLTHGQTQPWTTQLWDLTGFSYEDLIPCVLSLHKKCFHDDAPKDYRQVSLTAVKQRFEDKRYGEISQEEVLSYSQLCAALGVTQDSPDPPTFLSTGEIHAFLSSPSGRRTKRKRENSLQEDRGSFVTTPTAELSSQEETLLGSFLDWSLDCCSGYEGDQESEGEKEGDVTAPSGILDVTVVYLNPEQHCCQESSDEEACPEDKGPQDPQALALDTQIPATPGPKPLVRTSREPGKDVTTSGYSSVSTASPTSSVDGGLGALPQPTSVLSLDSDSHTQPCHHQARKSCLQCRPPSPPESSVPQQQVKRINLCIHSEEEDMNLGLVRL
With B2, the binding entry in test [3] and in test [4] was “binds” throughout.

B3: Cyclin F-flag (protein, UniProt P41002 1-786, looked up, not shown: small tags and cut ends)
chain: MGSGGVVHCRCAKCFCYPTKRRIRRRPRNLTILSLPEDVLFHILKWLSVEDILAVRAVHSQLKDLVDNHASVWACASFQELWPSPGNLKLFERAAEKGNFEAAVKLGIAYLYNEGLSVSDEARAEVNGLKASRFFSLAERLNVGAAPFIWLFIRPPWSVSGSCCKAVVHESLRAECQLQRTHKASILHCLGRVLSLFEDEEKQQQAHDLFEEAAHQGCLTSSYLLWESDRRTDVSDPGRCLHSFRKLRDYAAKGCWEAQLSLAKACANANQLGLEVRASSEIVCQLFQASQAVSKQQVFSVQKGLNDTMRYILIDWLVEVATMKDFTSLCLHLTVECVDRYLRRRLVPRYRLQLLGIACMVICTRFISKEILTIREAVWLTDNTYKYEDLVRMMGEIVSALEGKIRVPTVVDYKEVLLTLVPVELRTQHLCSFLCELSLLHTSLSAYAPARLAAAALLLARLTHGQTQPWTTQLWDLTGFSYEDLIPCVLSLHKKCFHDDAPKDYRQVSLTAVKQRFEDKRYGEISQEEVLSYSQLCAALGVTQDSPDPPTFLSTGEIHAFLSSPSGRRTKRKRENSLQEDRGSFVTTPTAELSSQEETLLGSFLDWSLDCCSGYEGDQESEGEKEGDVTAPSGILDVTVVYLNPEQHCCQESSDEEACPEDKGPQDPQALALDTQIPATPGPKPLVRTSREPGKDVTTSGYSSVSTASPTSSVDGGLGALPQPTSVLSLDSDSHTQPCHHQARKSCLQCRPPSPPESSVPQQQVKRINLCIHSEEEDMNLGLVRL
Turning to B3, the binding result with TDP-43-HA [5] and with TDP-43-HA [6] was “binds” throughout.
